This sample is rich in variants without activity.
B1: tRNA (parent)
chain: GUUCCGUUGGCGUAAUGGUAACGCGUCUCCCUCCUAAGGAGAAGACUGCGGGUUCGAGUCCCGUACGGAACG

Variants of: B1
Experiment: yeast fitness relative to wild type (ratio to wild type); higher = fitter; tRNA-Arg(CCU), competitive growth, 37 C, YPD
Method in brief: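 For this measurement, the tRNA-Arg(CCU) gene was varied by chemical synthesis at a 3% per-site mutation rate across 69 sites, and each variant was placed at the native genomic locus in Saccharomyces cerevisiae. The pooled strains went through a 24-hour competition in YPD at 37°C in six parallel replicates, with amplicons from start and end populations read by 100-nucleotide paired-end sequencing. Darwinian fitness relative to wild type followed from the change in each genotype's frequency. Genotypes needed ≥ 100 starting reads, and estimates < 0.5 were set to 0.5.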

| Variant | yeast fitness |
| --- | --- |
| C5U A20G C31U A69C | ≤ 0.5 |
| C11G G18C A21G A40U G48A | ≤ 0.5 |
| A40C U59G C60G | ≤ 0.5 |
| G17A A36C A70C | ≤ 0.5 |
| C11A A42U G50A | ≤ 0.5 |
| C29A G50C U64C | ≤ 0.5 |
| C5U G25A C49A A69U | ≤ 0.5 |
| C4A C31G G39A G51C | ≤ 0.5 |
| A21G C55U G63A G67C | ≤ 0.5 |
| G9A C29A G50A A69C | ≤ 0.5 |
| C5U A14G A21U A36U G48C C55U | 0.627 |
| C4A G44C C49U G51A G58C U59A | ≤ 0.5 |
| U59G A65G | 0.965 |
| U3G U8G C29G A40U C61U A69C | ≤ 0.5 |
| C5A C27U G39C | ≤ 0.5 |
| C11U U26A C66U | ≤ 0.5 |
| C4U G12A A20G C22U U59A | ≤ 0.5 |
| A20G C31G C60G | ≤ 0.5 |
| C31U G39A G44A C61U G68C | ≤ 0.5 |
| U3G C46U U59A | 0.562 |
| G9A C24U U32G | ≤ 0.5 |
| A20G C46G G56C | ≤ 0.5 |
| A20G C24G G67C | ≤ 0.5 |
| A20G U32A A42C G67C | ≤ 0.5 |
| A14U C24U C29A G52C C55A | ≤ 0.5 |
| G6A G10C A20G C22U G50A G58A | ≤ 0.5 |
| U3C C4U A21G C46A | 0.628 |
| U7A C30G U32G A65U | ≤ 0.5 |

| Variant | yeast fitness |
| --- | --- |
| C5A C30G A57G | ≤ 0.5 |
| U7A C11G A36U G48A U54A | ≤ 0.5 |
| U7A C22A C30U | ≤ 0.5 |
| C11A A42G A43U C46U C55G U59A G63A | ≤ 0.5 |
| C55U G58A C61G A70U | ≤ 0.5 |
| C4U G12A A42U U47A C61A | ≤ 0.5 |
| C31U U32G C33G G58C | ≤ 0.5 |
| C11G U13C A37U | ≤ 0.5 |
| U32C A40G G52C | ≤ 0.5 |
| U7A G10C G52A U54C | ≤ 0.5 |
| C4U G6A A57C A65C | ≤ 0.5 |
| G10C U32C C66G | ≤ 0.5 |
| U3A A15G U19A U32C G41A G50A | ≤ 0.5 |
| A14U C34G C46A C62U G68A A69C | ≤ 0.5 |
| C4U C27A A65C A69C | ≤ 0.5 |
| U7A A36C A40U A70C | ≤ 0.5 |
| C5G G25A A65G | 0.763 |
| C22G C27G C33U G41A G50A | ≤ 0.5 |
| G9C A36U G50C C61U C66U | ≤ 0.5 |
| G6C A14U G51U C60U C62U A65C A69G | ≤ 0.5 |
| C30U A45U A69G | 0.566 |
| U3C A14U U19C A37U C60A | ≤ 0.5 |
| U2G C4A G17A A20U C24U | ≤ 0.5 |
| U3G A14C C49U C55A C66U | ≤ 0.5 |
| U3G U16C C34A | ≤ 0.5 |
| C4A C11U | 0.781 |
| G6C G12C U16C A21G G56C | ≤ 0.5 |

Reference: the RNAGym collection of RNA variant scans (doi:10.1126/science.aae0568)
